Test results: patent US20240299438A1, “METHOD FOR DIAGNOSIS AND TREATMENT OF AUTISM SPECTRUM DISORDER ON BASIS OF ACTIVITY REGULATION MECHANISM OF DORMANT NEURAL STEM CELL” (DONGGUK UNIVERSITY INDUSTRY-ACADEMIC COOPERATION FOUNDATION, priority 2021, published 2024)
At least one compound was matched to its structure with a doubt left.

Tests used:
Shank3-deficient mice = experiment: Social interaction behavioral test (3 chambers) after drug injection; type: in vivo, mouse; details: followed for 28 days after injection
Procedure: FIG. 5 (A) Immunostaining results of quiescent neural stem cells in the SVZ of control and Shank3 KO mice injected with saline, OICR-9429 (3 mg/kg, once/day, 3 days), romidepsin (0.25 mg/kg, once/day, 3 days), and clozapine (5 mg/kg, once/day, 3 days). The yellow arrows indicate GFAP+Sox2+Dlx2− qNSCs. Scale bar=20 μm. (B) Immunostaining results of quiescent neural stem cells in the DG of control and Shank3 KO mice injected with saline, OICR-9429 (3 mg/kg, once/day, 3 days), romidepsin (0.25 mg/kg, once/day, 3 days), and clozapine (5 mg/kg, once/day, 3 days). The yellow arrows indicate GFAP+Sox2+NeuN− qNSCs. Scale bar=20 μm. (C-E) Quantification results of FAP+Sox2+Id2+ (C) and GFAP+Sox2+Dlx2− (D) qNSCs in the SVZ and GFAP+Sox2+NeuN− (E) qNSCs in the DG. (F) Quantification results of BrdU+ NSCs in the SVZ injected with saline, OICR-9429, romidepsin, and clozapine. Control and Shank3 KO mice injected with each drug were injected intraperitoneally with a daily dose of BrdU (100 mg/kg/day). (G) Quantification results of DCX+ NPCs in the DG of control and Shank3 KO mice injected with each drug. (H) Immunofluorescence analysis of GFAP+,Sox2+,BrdU+ aNSCs in the SVZ of control and Shank3 KO mice injected with each drug. Scale bar=100 μm. (I) Quantification results of BrdU+ cells in the SVZ of saline- or OICR-9429-treated control and Shank3 mice at different time points after TMZ injection. […]

[1] = test system: HOMER1, SAPAP3, GluR1, NR2A; experiment: Western blot of synaptic proteins and glutamate receptor subunits in SHANK3-deficient human cultures; type: cell-based

C/C=C1\NC(=O)[C@H]2CSSCC/C=C/[C@H](CC(=O)N[C@H](C(C)C)C(=O)N2)OC(=O)[C@H](C(C)C)NC1=O [romidepsin]
social preference index (persistence of effect) (Shank3-deficient mice): did not improve
expression levels of synaptic proteins HOMER1 and SAPAP3 and glutamate receptor subunits GluR1 and NR2A [1]: did not affect
